Measured data: PubChem BioAssay AID720505 (Drosophila RNAi Screening Center, 2013)
In all, the deposit lists about 20,000 reagents; shown is an unselected part of those that have a named target and a result. Over the whole deposit, about 2,100 (10%) were called active. 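Raw plate signals without normalisation; calls rest on control-based scores that were not deposited; replicate 2 separates called from uncalled poorly.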 Names joined by + are all predicted targets of the reagent. Not stated in the record: the amount of reagent, the time to read-out.

Screen: 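Fly regulators or components of the CRAC channel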 (primary screen)
System: Drosophila S2R+ cells
Reagent: long dsRNA against Drosophila genes
Treatment: thapsigargin (2 µM) in calcium-free buffer to empty internal stores, then 2 mM calcium added back
Read-out: 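Fluo-4 signal in 384-well plates read on a FLIPR after thapsigargin (2 µM, calcium-free) store depletion and 2 mM calcium add-back; unnormalised mean endpoint per well; screen run twice, selected wells retested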
Reading the numbers: calcium signal: higher = more calcium entry after store depletion
Call rule: 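Knock-downs counted as hits when calcium entry dropped relative to STIM1 positive and Rho1 negative controls present on each plate; roughly 1500 genes called, with reductions of differing size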
Calls: active = called as lowering calcium entry; inactive = not called

| gene | DRSC id | calcium signal, replicate 1 | calcium signal, replicate 2 | Call |
| --- | --- | --- | --- | --- |
| disco-r | DRSC20173 | 99 | 101 | inactive |
| disco-r | DRSC20174 | 79.9 | 121 | inactive |
| Sirt1 | DRSC03435 | 93 | 95.5 | inactive |
| RpL14 | DRSC11269 | 69.6 | 52.4 | active |
| Pgi | DRSC07507 | 164 | 126 | inactive |
| Srr | DRSC16382 | 102 | 79.8 | inactive |
| CG13186 | DRSC06311 | 86.5 | 154 | inactive |
| CG31391 | DRSC16047 | 117 | 119 | inactive |
| tilB | DRSC20634 | 109 | 109 | inactive |
| Vps8 | DRSC09705 | 104 | 76.3 | inactive |
| Rga + asRNA:ASTR | DRSC12364 | 152 | 172 | inactive |
| CG34310 | DRSC00943 | 75.8 | 156 | inactive |
| CG8569 | DRSC07214 | 139 | 145 | inactive |
| Dh31-R | DRSC06647 | 105 | 140 | inactive |
| Dh31-R | DRSC06669 | 117 | 210 | inactive |
| Vlet | DRSC19845 | 114 | 106 | inactive |
| gce | DRSC19613 | 73.4 | 91.5 | inactive |
| gce | DRSC19974 | 77.6 | 97.7 | inactive |
| hoe2 | DRSC00459 | 62.6 | 174 | active |
| ReepB | DRSC07150 | 165 | 167 | inactive |
| Cep290 | DRSC08359 | 109 | 80.9 | inactive |
| CG5321 | DRSC19940 | 68.5 | 115 | active |
| CG5321 | DRSC22802 | 78.2 | 107 | inactive |
| boca | DRSC06408 | 121 | 131 | inactive |
| CG33771 | DRSC11718 | 97.2 | 98.8 | inactive |
| CG10793 | DRSC17760 | 97 | 115 | inactive |
| CG34228 | DRSC05300 | 100 | 80.8 | inactive |
| CG32040 | DRSC22459 | 109 | 156 | inactive |
| Ncc69 | DRSC10412 | 102 | 127 | inactive |
| Ncc69 | DRSC10413 | 85.1 | 55.8 | inactive |
| Mal-A8 | DRSC07234 | 193 | 161 | inactive |
| Or1a | DRSC18689 | 117 | 118 | inactive |
| CG5866 | DRSC15900 | 110 | 127 | inactive |
| Rsph9 | DRSC01594 | 235 | 87.9 | inactive |
| vex | DRSC19481 | 102 | 98 | inactive |
| vex | DRSC19651 | 96.1 | 129 | inactive |
| vex | DRSC21843 | 64.8 | 116 | inactive |

Next part (2 carried over from the part before).
| gene | DRSC id | calcium signal, replicate 1 | calcium signal, replicate 2 | Call |
| --- | --- | --- | --- | --- |
| vex | DRSC19651 | 96.1 | 129 | inactive |
| vex | DRSC21843 | 64.8 | 116 | inactive |
| Exo70 | DRSC10774 | 71.3 | 77.5 | inactive |
| Ice1 | DRSC04191 | 32.2 | 105 | active |
| CG2111 | DRSC18205 | 102 | 98.6 | inactive |
| gogo | DRSC10070 | 72.7 | 129 | inactive |
| gogo | DRSC10071 | 49.8 | 129 | active |
| mask | DRSC15370 | 167 | 199 | active |
| mask | DRSC16005 | 146 | 153 | inactive |
| mask | DRSC16018 | 143 | 262 | inactive |
| CG18585 | DRSC02678 | 148 | 315 | inactive |
| Prosbeta1 | DRSC07159 | 90.3 | 121 | inactive |
| Bug22 | DRSC02842 | 227 | 184 | inactive |
| CG4887 | DRSC00670 | 191 | 102 | inactive |
| CG4887 | DRSC21563 | 169 | 139 | inactive |
| ctp | DRSC18758 | 108 | 73.6 | inactive |
| Mekk1 | DRSC16302 | 104 | 190 | inactive |
| Mekk1 | DRSC16303 | 213 | 171 | inactive |
| Hpf1 | DRSC12202 | 118 | 124 | inactive |
| CG18135 | DRSC10295 | 91 | 100 | inactive |
| Pat1 | DRSC17750 | 109 | 121 | inactive |
